Results are given in words; binding and its absence hold for the method and conditions named. Some entries that bind do so weakly or less than the wild type.
Tests used:
Assay in all cases: tandem affinity co-purification
Brn1 (S. cerevisiae) = biological target: T1, Brn1 (S. cerevisiae) (UniProt P38170)
T1 sequence: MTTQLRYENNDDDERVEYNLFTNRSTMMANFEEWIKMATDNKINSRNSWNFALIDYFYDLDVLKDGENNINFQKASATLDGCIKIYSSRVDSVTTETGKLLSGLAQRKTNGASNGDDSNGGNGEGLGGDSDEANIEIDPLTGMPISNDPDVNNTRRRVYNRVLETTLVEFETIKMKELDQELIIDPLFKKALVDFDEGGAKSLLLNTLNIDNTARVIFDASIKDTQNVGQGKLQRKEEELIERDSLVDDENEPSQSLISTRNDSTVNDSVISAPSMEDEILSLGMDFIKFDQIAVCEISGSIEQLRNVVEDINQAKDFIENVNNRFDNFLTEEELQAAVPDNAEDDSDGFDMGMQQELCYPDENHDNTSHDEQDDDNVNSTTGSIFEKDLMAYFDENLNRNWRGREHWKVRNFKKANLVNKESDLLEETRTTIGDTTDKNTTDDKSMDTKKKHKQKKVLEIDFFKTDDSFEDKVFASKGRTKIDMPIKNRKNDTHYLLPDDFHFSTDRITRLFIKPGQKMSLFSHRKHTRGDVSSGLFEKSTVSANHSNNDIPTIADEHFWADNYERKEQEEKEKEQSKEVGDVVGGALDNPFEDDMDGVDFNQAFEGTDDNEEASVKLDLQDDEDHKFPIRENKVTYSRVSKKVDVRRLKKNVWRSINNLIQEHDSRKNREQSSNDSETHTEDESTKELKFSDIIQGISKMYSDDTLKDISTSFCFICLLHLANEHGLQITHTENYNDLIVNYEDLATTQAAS

[1] = biological target: T2, Smc4 E1352Q (S. cerevisiae) (UniProt Q12267)
T2 sequence: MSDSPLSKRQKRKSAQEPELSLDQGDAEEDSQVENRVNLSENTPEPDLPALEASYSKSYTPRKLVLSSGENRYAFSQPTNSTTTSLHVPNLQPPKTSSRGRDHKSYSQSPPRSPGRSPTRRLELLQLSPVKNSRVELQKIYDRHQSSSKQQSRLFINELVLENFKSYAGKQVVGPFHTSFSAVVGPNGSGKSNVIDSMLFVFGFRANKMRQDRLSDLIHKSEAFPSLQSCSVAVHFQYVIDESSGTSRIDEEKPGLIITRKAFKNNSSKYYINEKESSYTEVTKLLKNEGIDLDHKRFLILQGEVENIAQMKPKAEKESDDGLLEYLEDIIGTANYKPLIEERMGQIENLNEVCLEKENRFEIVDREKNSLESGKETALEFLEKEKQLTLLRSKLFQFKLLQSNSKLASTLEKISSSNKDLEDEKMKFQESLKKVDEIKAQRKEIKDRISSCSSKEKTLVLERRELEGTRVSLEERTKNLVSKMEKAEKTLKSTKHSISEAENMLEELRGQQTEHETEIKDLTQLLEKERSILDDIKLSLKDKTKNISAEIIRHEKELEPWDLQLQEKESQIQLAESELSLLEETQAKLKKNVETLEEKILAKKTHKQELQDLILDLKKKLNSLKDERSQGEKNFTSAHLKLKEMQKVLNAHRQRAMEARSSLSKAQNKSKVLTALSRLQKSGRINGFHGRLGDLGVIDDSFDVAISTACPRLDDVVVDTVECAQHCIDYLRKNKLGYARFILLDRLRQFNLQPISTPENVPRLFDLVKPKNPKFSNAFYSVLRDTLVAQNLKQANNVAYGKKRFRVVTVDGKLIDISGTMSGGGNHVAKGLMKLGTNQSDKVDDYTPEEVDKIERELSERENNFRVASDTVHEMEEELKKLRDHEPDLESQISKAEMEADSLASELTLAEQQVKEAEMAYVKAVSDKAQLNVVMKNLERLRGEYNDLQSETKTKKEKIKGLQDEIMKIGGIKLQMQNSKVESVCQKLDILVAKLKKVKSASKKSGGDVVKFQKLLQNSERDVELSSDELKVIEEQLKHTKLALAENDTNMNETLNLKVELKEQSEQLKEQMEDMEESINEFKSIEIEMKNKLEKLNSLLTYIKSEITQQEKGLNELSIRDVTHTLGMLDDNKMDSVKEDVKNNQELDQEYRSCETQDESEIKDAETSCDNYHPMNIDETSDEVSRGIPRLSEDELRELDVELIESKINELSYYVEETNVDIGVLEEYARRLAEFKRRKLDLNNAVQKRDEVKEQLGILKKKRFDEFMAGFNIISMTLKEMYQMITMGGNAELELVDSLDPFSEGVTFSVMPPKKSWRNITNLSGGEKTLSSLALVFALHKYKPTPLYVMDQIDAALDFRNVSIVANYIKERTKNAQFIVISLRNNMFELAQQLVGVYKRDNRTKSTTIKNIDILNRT

[2] = biological target: T3, Smc4 (S. cerevisiae), Q12267; settings: remark: other sources report otherwise
T3 chain: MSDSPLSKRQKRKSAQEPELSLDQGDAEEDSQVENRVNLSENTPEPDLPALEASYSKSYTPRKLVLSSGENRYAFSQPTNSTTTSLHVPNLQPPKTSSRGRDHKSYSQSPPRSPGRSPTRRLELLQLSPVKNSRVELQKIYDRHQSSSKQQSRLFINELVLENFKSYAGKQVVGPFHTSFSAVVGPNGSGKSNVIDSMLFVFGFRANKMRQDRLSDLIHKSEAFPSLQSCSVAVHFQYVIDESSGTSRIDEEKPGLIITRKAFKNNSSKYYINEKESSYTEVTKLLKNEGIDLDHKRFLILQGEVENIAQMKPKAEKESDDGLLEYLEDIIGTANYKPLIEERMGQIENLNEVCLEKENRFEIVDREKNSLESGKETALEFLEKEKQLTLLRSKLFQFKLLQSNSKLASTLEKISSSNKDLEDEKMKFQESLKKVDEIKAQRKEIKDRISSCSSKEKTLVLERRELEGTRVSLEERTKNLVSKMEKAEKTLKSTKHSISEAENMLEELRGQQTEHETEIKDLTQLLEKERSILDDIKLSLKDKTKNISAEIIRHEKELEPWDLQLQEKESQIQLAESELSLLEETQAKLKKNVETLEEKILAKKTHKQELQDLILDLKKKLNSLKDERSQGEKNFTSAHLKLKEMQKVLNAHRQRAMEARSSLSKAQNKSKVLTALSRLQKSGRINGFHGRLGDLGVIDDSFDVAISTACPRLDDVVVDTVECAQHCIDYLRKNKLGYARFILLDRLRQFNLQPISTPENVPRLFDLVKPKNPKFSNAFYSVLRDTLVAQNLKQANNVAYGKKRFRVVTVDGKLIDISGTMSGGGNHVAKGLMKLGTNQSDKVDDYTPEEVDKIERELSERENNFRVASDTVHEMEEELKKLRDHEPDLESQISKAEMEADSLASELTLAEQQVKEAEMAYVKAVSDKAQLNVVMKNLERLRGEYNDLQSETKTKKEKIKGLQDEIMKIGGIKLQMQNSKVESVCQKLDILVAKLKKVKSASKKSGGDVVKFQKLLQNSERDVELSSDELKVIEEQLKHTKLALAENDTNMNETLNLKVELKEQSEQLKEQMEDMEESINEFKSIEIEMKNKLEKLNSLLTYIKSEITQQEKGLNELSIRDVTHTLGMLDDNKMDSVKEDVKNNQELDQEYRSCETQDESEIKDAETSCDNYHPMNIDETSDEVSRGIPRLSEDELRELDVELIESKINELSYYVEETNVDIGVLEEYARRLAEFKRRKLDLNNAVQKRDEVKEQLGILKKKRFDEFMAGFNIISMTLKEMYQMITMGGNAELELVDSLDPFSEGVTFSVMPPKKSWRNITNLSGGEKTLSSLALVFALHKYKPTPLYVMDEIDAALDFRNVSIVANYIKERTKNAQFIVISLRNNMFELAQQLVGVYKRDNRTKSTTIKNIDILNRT

B1: Smc2 E1113Q (protein, UniProt P38989 1-1170)
chain: MKVEELIIDGFKSYATRTVITDWDPQFNAITGLNGSGKSNILDAICFVLGIASMSTVRASSLQDLIYKRGQAGVTKASVTIVFDNTDKSNSPIGFTNSPQISVTRQVVLGGTSKYLINGHRAPQQSVLQLFQSVQLNINNPNFLIMQGKITKVLNMKPSEILSLIEEAAGTKMFEDRREKAERTMSKKETKLQENRTLLTEEIEPKLEKLRNEKRMFLEFQSTQTDLEKTERIVVSYEYYNIKHKHTSIRETLENGETRMKMLNEFVKKTSEEIDSLNEDVEEIKLQKEKELHKEGTISKLENKENGLLNEISRLKTSLSIKVENLNDTTEKSKALESEIASSSAKLIEKKSAYANTEKDYKMVQEQLSKQRDLYKRKEELVSTLTTGISSTGAADGGYNAQLAKAKTELNEVSLAIKKSSMKMELLKKELLTIEPKLKEATKDNELNVKHVKQCQETCDKLRARLVEYGFDPSRIKDLKQREDKLKSHYYQTCKNSEYLKRRVTNLEFNYTKPYPNFEASFVHGVVGQLFQIDNDNIRYATALQTCAGGRLFNVVVQDSQTATQLLERGRLRKRVTIIPLDKIYTRPISSQVLDLAKKIAPGKVELAINLIRFDESITKAMEFIFGNSLICEDPETAKKITFHPKIRARSITLQGDVYDPEGTLSGGSRNTSESLLVDIQKYNQIQKQIETIQADLNHVTEELQTQYATSQKTKTIQSDLNLSLHKLDLAKRNLDANPSSQIIARNEEILRDIGECENEIKTKQMSLKKCQEEVSTIEKDMKEYDSDKGSKLNELKKELKLLAKELEEQESESERKYDLFQNLELETEQLSSELDSNKTLLHNHLKSIESLKLENSDLEGKIRGVEDDLVTVQTELNEEKKRLMDIDDELNELETLIKKKQDEKKSSELELQKLVHDLNKYKSNTNNMEKIIEDLRQKHEFLEDFDLVRNIVKQNEGIDLDTYRERSKQLNEKFQELRKKVNPNIMNMIENVEKKEAALKTMIKTIEKDKMKIQETISKLNEYKRETLVKTWEKVTLDFGNIFADLLPNSFAKLVPCEGKDVTQGLEVKVKLGNIWKESLIELSGGQRSLIALSLIMALLQFRPAPMYILDQVDAALDLSHTQNIGHLIKTRFKGSQFIVVSLKEGMFANANRVFRTRFQDGTSVVSIM
binding (Brn1 (S. cerevisiae)): binds | binding [1]: binds

B2: Ycg1, Q06680 1-1035 (protein)
chain: MQDPDGIDINTKIFNSVAEVFQKAQGSYAGHRKHIAVLKKIQSKAVEQGYEDAFNFWFDKLVTKILPLKKNEIIGDRIVKLVAAFIASLERELILAKKQNYKLTNDEEGIFSRFVDQFIRHVLRGVESPDKNVRFRVLQLLAVIMDNIGEIDESLFNLLILSLNKRIYDREPTVRIQAVFCLTKFQDEEQTEHLTELSDNEENFEATRTLVASIQNDPSAEVRRAAMLNLINDNNTRPYILERARDVNIVNRRLVYSRILKSMGRKCFDDIEPHIFDQLIEWGLEDRELSVRNACKRLIAHDWLNALDGDLIELLEKLDVSRSSVCVKAIEALFQSRPDILSKIKFPESIWKDFTVEIAFLFRAIYLYCLDNNITEMLEENFPEASKLSEHLNHYILLRYHHNDISNDSQSHFDYNTLEFIIEQLSIAAERYDYSDEVGRRSMLTVVRNMLALTTLSEPLIKIGIRVMKSLSINEKDFVTMAIEIINDIRDDDIEKQEQEEKIKSKKINRRNETSVDEEDENGTHNDEVNEDEEDDNISSFHSAVENLVQGNGNVSESDIINNLPPEKEASSATIVLCLTRSSYMLELVNTPLTENILIASLMDTLITPAVRNTAPNIRELGVKNLGLCCLLDVKLAIDNMYILGMCVSKGNASLKYIALQVIVDIFSVHGNTVVDGEGKVDSISLHKIFYKVLKNNGLPECQVIAAEGLCKLFLADVFTDDDLFETLVLSYFSPINSSNEALVQAFAFCIPVYCFSHPAHQQRMSRTAADILLRLCVLWDDLQSSVIPEVDREAMLKPNIIFQQLLFWTDPRNLVNQTGSTKKDTVQLTFLIDVLKIYAQIEKKEIKKMIITNINAIFLSSEQDYSTLKELLEYSDDIAENDNLDNVSKNALDKLRNNLNSLIEEINERSETQTKDENNTANDQYSSILGNSFNKSSNDTIEHAADITDGNNTELTKTTVNISAVDNTTEQSNSRKRTRSEAEQIDTSKNLENMSIQDTSTVAKNVSFVLPDEKSDAMSIDEEDKDSESFSEVC
binding [2]: binds
